From publication doi:10.1101/2021.03.31.437858
Results are given in words; binding and its absence hold for the method and conditions named. In cells and extracts the contact can be indirect. Binding can be weak; no strength is given.

Target: T1, adenine nucleotide carrier isoform 1 (SLC25A4) (bovine (endogenous in bovine heart mitochondria)) (UniProt P02722)
T1 sequence: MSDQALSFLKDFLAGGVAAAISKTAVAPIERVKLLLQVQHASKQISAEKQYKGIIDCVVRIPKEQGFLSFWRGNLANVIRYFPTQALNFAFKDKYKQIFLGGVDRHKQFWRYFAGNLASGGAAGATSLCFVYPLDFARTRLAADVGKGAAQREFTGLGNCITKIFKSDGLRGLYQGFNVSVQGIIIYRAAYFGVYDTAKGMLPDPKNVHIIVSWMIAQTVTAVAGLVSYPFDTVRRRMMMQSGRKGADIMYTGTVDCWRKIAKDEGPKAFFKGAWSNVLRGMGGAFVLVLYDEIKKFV
Assay: cross-linking

binding: binds
Substance: Apoptosis Inducing Factor 1 (AIFM1)
